From publication PMC10298087
No constants are given. Whether binding was seen depends on the method and setting. In cells and extracts the contact can be indirect. A yes stands for co-enrichment or nearness to the bait. Other partners may have been found.

T1: TRIM28-K304Q (endogenous, knock-in K562 clone Q1) (human (endogenous in K562)) (UniProt Q13263)
T1 sequence: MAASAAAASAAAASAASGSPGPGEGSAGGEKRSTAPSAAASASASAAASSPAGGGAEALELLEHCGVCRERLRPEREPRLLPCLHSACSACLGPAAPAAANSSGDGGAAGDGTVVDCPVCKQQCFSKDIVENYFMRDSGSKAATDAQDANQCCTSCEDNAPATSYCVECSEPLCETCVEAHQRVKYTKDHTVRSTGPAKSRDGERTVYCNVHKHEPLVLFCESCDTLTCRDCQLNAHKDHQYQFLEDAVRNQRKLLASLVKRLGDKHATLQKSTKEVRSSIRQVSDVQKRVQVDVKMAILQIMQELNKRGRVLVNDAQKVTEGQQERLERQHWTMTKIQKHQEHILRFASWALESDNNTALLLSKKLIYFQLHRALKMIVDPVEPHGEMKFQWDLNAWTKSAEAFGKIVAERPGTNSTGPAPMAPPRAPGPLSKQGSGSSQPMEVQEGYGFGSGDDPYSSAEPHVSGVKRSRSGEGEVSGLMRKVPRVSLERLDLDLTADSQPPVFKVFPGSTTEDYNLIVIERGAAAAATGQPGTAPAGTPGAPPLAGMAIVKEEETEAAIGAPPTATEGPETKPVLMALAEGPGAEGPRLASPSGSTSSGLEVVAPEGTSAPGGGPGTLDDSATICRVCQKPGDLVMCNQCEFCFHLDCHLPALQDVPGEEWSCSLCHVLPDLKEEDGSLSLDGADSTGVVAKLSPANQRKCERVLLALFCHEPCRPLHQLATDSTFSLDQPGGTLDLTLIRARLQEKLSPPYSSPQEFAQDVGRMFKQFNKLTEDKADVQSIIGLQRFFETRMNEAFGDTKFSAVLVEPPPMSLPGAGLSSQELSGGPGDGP


Tests used:
[1] = biological target: T1, TRIM28-K304Q (endogenous, knock-in K562 clone Q1) (human (endogenous in K562)); assay: affinity purification with mass spectrometry; IP of endogenous TRIM28 or TRIM28-K304Q from K562 cells with anti-TRIM28-N-conjugated protein A beads; washed, eluted with the antibody-generating peptide; MS (LTQ-Orbitrap Velos, Mascot)
[2] = biological target: wild-type TRIM28 (endogenous, K562 cells) (human (endogenous in K562)) (UniProt Q13263); assay: as above

binding [1]	binding [2]	Binder
binds	binds	ZFP92 (protein, UniProt A6NM28 1-416) MAAILLTTRPKVPVSFEDVSVYFTKTEWKLLDLRQKVLYKRVMLENYSHLVSLGFSFSKPHLISQLERGEGPWVADIPRTWATAGLHIGDRTQSKTSTSTQKHSGRQLPGADPQGGKEGQAARSSVLQRGAQGLGQSSAAGPQGPKGAEKRYLCQQCGKAFSRSSNLIKHRIIHSGEKPYACPECGKLFRRSFALLEHQRIHSGEKPYACPECSKTFTRSSNLIKHQVIHSGERPFACGDCGKLFRRSFALLEHARVHSGERPYACPECGKAFSRSSNLIEHQRTHRGEKPYACGQCAKAFKGVSQLIHHQRSHSGERPFACRECGKAFRGRSGLSQHRRVHSGEKPYECSDCGKAFGRRANLFKHQAVHGARRPAKAETARRLAGPGSTGPGSAVAATSPPRPSTAARPSRPSRR
–	binds	ZNF655 (protein, UniProt Q8N720 1-491) MEEIPAQEAAGSPRVQFQSLETQSECLSPEPQFVQDTDMEQGLTGDGETREENKLLIPKQKISEEVHSYKVRVGRLKHDITQVPETREVYKSEDRLERLQEILRKFLYLEREFRQITISKETFTSEKNNECHEPEKSFSLDSTIDADQRVLRIQNTDDNDKYDMSFNQNSASGKHEHLNLTEDFQSSECKESLMDLSHLNKWESIPNTEKSYKCDVCGKIFHQSSALTRHQRIHTREKPYKCKECEKSFSQSSSLSRHKRIHTREKPYKCEASDKSCEASDKSCSPSSGIIQHKKIHTRAKSYKCSSCERVFSRSVHLTQHQKIHKEMPCKCTVCGSDFCHTSYLLEHQRVHHEEKAYEYDEYGLAYIKQQGIHFREKPYTCSECGKDFRLNSHLIQHQRIHTGEKAHECNECGKAFSQTSCLIQHHKMHRKEKSYECNEYEGSFSHSSDLILQQEVLTRQKAFDCDVWEKNSSQRAHLVQHQSIHTKENS
binds	binds	HNRNP M (protein, UniProt P52272 1-730) MAAGVEAAAEVAATEIKMEEESGAPGVPSGNGAPGPKGEGERPAQNEKRKEKNIKRGGNRFEPYANPTKRYRAFITNIPFDVKWQSLKDLVKEKVGEVTYVELLMDAEGKSRGCAVVEFKMEESMKKAAEVLNKHSLSGRPLKVKEDPDGEHARRAMQKVMATTGGMGMGPGGPGMITIPPSILNNPNIPNEIIHALQAGRLGSTVFVANLDYKVGWKKLKEVFSMAGVVVRADILEDKDGKSRGIGTVTFEQSIEAVQAISMFNGQLLFDRPMHVKMDERALPKGDFFPPERPQQLPHGLGGIGMGLGPGGQPIDANHLNKGIGMGNIGPAGMGMEGIGFGINKMGGMEGPFGGGMENMGRFGSGMNMGRINEILSNALKRGEIIAKQGGGGGGGSVPGIERMGPGIDRLGGAGMERMGAGLGHGMDRVGSEIERMGLVMDRMGSVERMGSGIERMGPLGLDHMASSIERMGQTMERIGSGVERMGAGMGFGLERMAAPIDRVGQTIERMGSGVERMGPAIERMGLSMERMVPAGMGAGLERMGPVMDRMATGLERMGANNLERMGLERMGANSLERMGLERMGANSLERMGPAMGPALGAGIERMGLAMGGGGGASFDRAIEMERGNFGGSFAGSFGGAGGHAPGVARKACQIFVRNLPFDFTWKMLKDKFNECGHVLYADIKMENGKSKGCGVVKFESPEVAERACRMMNGMKLSGREIDVRIDRNA
binds	binds	REXO5 (protein, UniProt Q96IC2 1-774) MEPEREGTERHPRKVRESRQAPNKLVGAAEAMKAGWDLEESQPEAKKARLSTILFTDNCEVTHDQLCELLKYAVLGKSNVPKPSWCQLFHQNHLNNVVVFVLQGMSQLHFYRFYLEFGCLRKAFRHKFRLPPPSSDFLADVVGLQTEQRAGDLPKTMEGPLPSNAKAAINLQDDPIIQKYGSKKVGLTRCLLTKEEMRTFHFPLQGFPDCENFLLTKCNGSIADNSPLFGLDCEMCLTSKGRELTRISLVAEGGCCVMDELVKPENKILDYLTSFSGITKKILNPVTTKLKDVQRQLKALLPPDAVLVGHSLDLDLRALKMIHPYVIDTSLLYVREQGRRFKLKFLAKVILGKDIQCPDRLGHDATEDARTILELARYFLKHGPKKIAELNLEALANHQEIQAAGQEPKNTAEVLQHPNTSVLECLDSVGQKLLFLTRETDAGELPSSRNCQTIKCLSNKEVLEQARVEIPLFPFSIVQFSFKAFSPVLTEEMNKRMRIKWTEISTVYAGPFSKNCNLRALKRLFKSFGPVQSMTFVLETRQPHLCIQYEVLEAAQLAIESLDGILVDGICIKVQRPVTELTLDCDTLVNELEGDSENQGSIYLSGVSETFKEQLLQEPRLFLGLEAVILPKDLKSGKQKKYCFLKFKSFGSAQQALNILTGKDWKLKGRHALTPRHLHAWLRGLPPESTRLPGLRVVPPPFEQEALQTLKLDHPKIAAWRWSRKIGKLYNSLCPGTLCLILLPGTKSTHGSLSGLGLMGIKEEEESAGPGLCS
binds	binds	ZNF614 (protein, UniProt Q8N883 1-585) MIKTQESLTLEDVAVEFSWEEWQLLDTAQKNLYRDVMVENYNHLVSLGYQTSKPDVLSKLAHGQEPWTTDAKIQNKNCPGIGKVDSHLQEHSPNQRLLKSVQQCNGQNTLRNIVHLSKTHFPIVQNHDTFDLYRKNLKSSLSLINQKRRHGINNPVEFIGGEKTLLHGKHERTHTKTRFSENAKCIHTKFQVFKHQRTQKIEKPHACIECEQTFLRKSQLIYHENICIQENPGSGQCEKLSRSVLFTKHLKTNTTDKICIPNEYRKGSTVKSSLITHQQTHTEEKSYMCSECGKGFTMKRYLIAHQRTHSGEKPYVCKECGKGFTVKSNLIVHQRTHTGEKPYICSECGKGFTMKRYLVVHQRTHTGEKPYMCSECGKGFTVKSNLIVHQRSHTGEKSYICSECGKGFTVKRTLVIHQRTHTGEKSYICNECGKGFTTKRTLIIHQRTHTGEKPYECNECGKAFSQKICLIQHERCHTGKTPFVCTECGKSYSHKYGLITHQRIHTGEKPYECNECGKAFTTKSVLNVHQRTHTGERPYGCSDCEKAFSHLSNLVKHKKMHTREMGRISQVENSCNGESQLLPYK
–	binds	ZNF644 (protein, UniProt Q9H582 1-1327) MRSFLQQDVNKTKSRLNVLNGLANNMDDLKINTDITGAKEELLDDNNFISDKESGVHKPKDCQTSFQKNNTLTLPEELSKDKSENALSGGQSSLFIHAGAPTVSSENFILPKGAAVNGPVSHSSLTKTSNMNKGSVSLTTGQPVDQPTTESCSTLKVAADLQLSTPQKASQHQVLFLLSDVAHAKNPTHSNKKLPTSASVGCDIQNSVGSNIKSDGTLINQVEVGEDGEDLLVKDDCVNTVTGISSGTDGFRSENDTNWDPQKEFIQFLMTNEETVDKAPPHSKIGLEKKRKRKMDVSKITRYTEDCFSDSNCVPNKSKMQEVDFLEQNEELQAVDSQKYALSKVKPESTDEDLESVDAFQHLIYNPDKCGEESSPVHTSTFLSNTLKKKCEESDSESPATFSTEEPSFYPCTKCNVNFREKKHLHRHMMYHLDGNSHFRHLNVPRPYACRECGRTFRDRNSLLKHMIIHQERRQKLMEEIRELKELQDEGRSARLQCPQCVFGTNCPKTFVQHAKTHEKDKRYYCCEECNFMAVTENELECHRGIAHGAVVKCPMVTSDIAQRKTQKKTFMKDSVVGSSKKSATYICKMCPFTTSAKSVLKKHTEYLHSSSCVDSFGSPLGLDKRKNDILEEPVDSDSTKTLTKQQSTTFPKNSALKQDVKRTFGSTSQSSSFSKIHKRPHRIQKARKSIAQSGVNMCNQNSSPHKNVTIKSSVDQKPKYFHQAAKEKSNAKANSHYLYRHKYENYRMIKKSGESYPVHFKKEEASSLNSLHLFSSSSNSHNNFISDPHKPDAKRPESFKDHRRVAVKRVIKESKKESSVGGEDLDSYPDFLHKMTVVVLQKLNSAEKKDSYETEDESSWDNVELGDYTTQAIEDETYSDINQEHVNLFPLFKSKVEGQEPGENATLSYDQNDGFYFEYYEDTGSNNFLHEIHDPQHLETADASLSKHSSVFHWTDLSLEKKSCPYCPATFETGVGLSNHVRGHLHRAGLSYEARHVVSPEQIATSDKMQHFKRTGTGTPVKRVRKAIEKSETTSEHTCQLCGGWFDTKIGLSNHVRGHLKRLGKTKWDAHKSPICVLNEMMQNEEKYEKILKALNSRRIIPRPFVAQKLASSDDFISQNVIPLEAYRNGLKTEALSVSASEEEGLNFLNEYDETKPELPSGKKNQSLTLIELLKNKRMGEERNSAISPQKIHNQTARKRFVQKCVLPLNEDSPLMYQPQKMDLTMHSALDCKQKKSRSRSGSKKKMLTLPHGADEVYILRCRFCGLVFRGPLSVQEDWIKHLQRHIVNANLPRTGAGMVEVTSLLKKPASITETSFSLLMAEAAS
–	binds	ZNF697 (protein, UniProt Q5TEC3 1-545) MKQEDNQGVCAHQDSEDKGMGSDFEDSEDREGDPEEREMGSNPHDTNKREGHPEPEMGSNPQDSRHREAVPDICTEGQLSEEEGVSVRGEEDDQSGVADMAMFPGLSESDSISRSLREDDDESAGENRLEEEEEQPAPPVLPWRRHLSLGSRHRGDKPAHRRFHRLHHPMAVDLGELDSLVASIMDAPTICPDCGESFSPGAAFLQHQRIHRLAEAAAAASLEPFGLAGECDAMVGMMGVGVAGGFGAGPPLARPPREKPFRCGECGKGFSRNTYLTNHLRLHTGERPNLCADCGKSFSWRADLLKHRRLHTGEKPYPCPECGEAFSLSSHLLSHRRAHAAASGAGAAALRPFACGECGKGFVRRSHLANHQRIHTGEKPHGCGECGKRFSWRSDLVKHQRVHTGEKPYMCSECGETFSVSSHLFTHKRTHSGERPYVCRECGKGFGRNSHLVNHLRVHTGEKPFRCGQCEKRFSDFSTLTQHQRTHTGEKPYTCIECGKSFIQSSHLIRHRRIHTGNKPHKCAGCGKGFRYKTHLAQHQKLHLC
